About 1,400 (4.5%) of roughly 31,000 sequences were called active.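 Rule for the calls: active = median seed-adjusted z-score above 1 or below -1; inactive = the rest.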 The list shows a part of the results.

The assay in a line: Novel Modifiers of Survival Motor Neuron (SMN) Protein: Gene Identification via Genome-wide siRNA Screen.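 Note: luminescence tracks full-length SMN protein made from the SMN2 reporter.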 To be noted: HEK293T SMN2-luciferase reporter, siRNA knockdown, 72 h; actives lie on both sides. The procedure, abridged: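 Luciferase signal, proportional to full-length SMN made from an SMN2 cDNA reporter in stable HEK293T cells, was read 72 h after siRNA reverse transfection. Values were expressed as MAD scores after non-targeting-control normalization and log10 conversion; seed analysis flagged off-targets.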
(In a reporter assay the amount or activity of a reporter protein is the signal.)
For the sequence CUAUCCCACUAGACUCAAATT against SLC22A10, the median seed-adjusted z-score is inactive: -0.0897.
For GCGAGUUUCUGGUCAACGATT against HOXC12, the median seed-adjusted z-score is inactive: 0.788.
For GUCCAUAUGAGAAAGUAAATT against SPINK5L2, the median seed-adjusted z-score was inactive: 0.482.
Take GAAGAUCCGUGACGACGAATT against SURF6: the median seed-adjusted z-score was inactive: 0.122.
Regarding AGCCUUUAAUCGGUGCUCATT against ZNF682, the median seed-adjusted z-score is inactive: -0.155.
Regarding GGGUCACCGUCAAUGGGAATT against IFI30, the median seed-adjusted z-score is inactive: 0.401.
Regarding GUAUGGAGAUUAUCAACCATT against PTPN13, the median seed-adjusted z-score is inactive: 0.0682.
Turning to GCUUUGACCCUCUCCUAUATT against CYSLTR1, the median seed-adjusted z-score was inactive: 0.364.
Then CCUGCAAAGCUGAUGCUAATT against PVRL1, with inactive: -0.362.
Take CGACAUCAGAGAGAAUUAATT against RHOXF1: the median seed-adjusted z-score was inactive: 0.341.
Then CAAACAGGCUGGUGAAUUATT against SMA4, with inactive: 0.291; and GGAAUAUCGUGGAGUGUAATT against ZNFX1, with inactive: -0.368; and GGAAAUCCAUCUACCGCUATT against SORL1, with inactive: 0.357.
For GCACUGUCUUUGUAUCUGATT against SFXN2 the value was inactive: 0.365; for CCAUUGCCAUCUACCUGCUTT against SCO2, inactive: 0.848.
Turning to GCCCUACUCUUGCUACGGATT against NKX2-6, the median seed-adjusted z-score is inactive: -0.00448.
Take GAUUCUCCGAAUGAAGUUATT against LIPH: the median seed-adjusted z-score is inactive: 0.0437.
As for AGUCGGAUCUGGACAAUGATT against CIB4, the median seed-adjusted z-score was inactive: -0.638.
Take GCAGAACUCUCAAGGUCCATT against CDH7: the median seed-adjusted z-score is inactive: 0.
As to GGAUUGAUUUGUCGGACUATT against CABIN1, the median seed-adjusted z-score was inactive: -0.446.
Regarding GCAUGUCGCCGAGAACCUUTT against GJC3, the median seed-adjusted z-score is inactive: -0.137.
CGACAAGCCCAAUGUUUAUTT against SSU72: the median seed-adjusted z-score was active: -1.64.
For the sequence GGAGUAUGCUUGCAUGAAATT against NR6A1, the median seed-adjusted z-score is inactive: -0.287.
Then CCAUCAGUCUGGAUGUAAATT against SLC13A4, with inactive: 0.446.
As for AGACCAAACAGGUGACUGUTT against GPHB5, the median seed-adjusted z-score is inactive: -0.533.
As to CCAAGUUAUCUGUACAGCATT against SLC18A2, the median seed-adjusted z-score was inactive: 0.777.
With GCAUUGUCAUUGCAAUUAATT against CLCA3, the median seed-adjusted z-score was inactive: 0.424.
For GGAGGAACUCGAAUCAUUUTT against EIF4EBP2 the value was inactive: 0.517; for CAUCCAGGCGGAGAAAGGATT against MEOX1, inactive: 0.0171.
For the sequence CCAACUACCUGAACGAUGATT against U2AF2, the median seed-adjusted z-score is active: 2.14.
For GCAACUCCAAUGUCAGUGATT against TAF9B the value was inactive: -0.0247.
As to GGAGCUCAUCGAGAUCUCATT against CABP2, the median seed-adjusted z-score is inactive: 0.323.
For the sequence CCGAUUGUACAGUAAAUUUTT against PTS, the median seed-adjusted z-score is inactive: -0.103.
Turning to CAUCACCACUAGCAGCAUATT against ANK3, the median seed-adjusted z-score is inactive: 0.0252.
GGAUAAUAAGGAUCUAUUUTT against CPNE3: the median seed-adjusted z-score is inactive: 0.109.
For GCUAUACCCUCGUUGAACATT against ZNF416 the value was inactive: 0.668.
Take CAUUCAACCGCAUCGCAAATT against ZNF624: the median seed-adjusted z-score is inactive: 0.378.
As for GGAUCUUUGCAGUUGGGUATT against MACF1, the median seed-adjusted z-score was inactive: -0.146.
For CGGUUUGCCUCAUUCCGAATT against GLDC, the median seed-adjusted z-score is inactive: 0.
In the case of GGAACUAAACUUGAUCUUATT against RAC1, the median seed-adjusted z-score was inactive: -0.0348.
With CGAUGAUGUGCUGACUAAATT against ZNRF1, the median seed-adjusted z-score is inactive: -0.808.
For GGAGUGAUUCACUUACUUUTT against DDX3Y, the median seed-adjusted z-score is inactive: -0.149.
For the sequence CACUCGCACACCAACCUUATT against PIR, the median seed-adjusted z-score was inactive: 0.169.
In the case of GAUGGAUUCUUGUUCCGUUTT against KCTD16, the median seed-adjusted z-score was inactive: 0.00219.
Then GGCUUGAAGUCAUCGAACATT against MAP3K10, with inactive: 0.201.
In the case of GAACCGUAAUGAUGAUAGATT against SFRS15, the median seed-adjusted z-score is inactive: 0.22.
Turning to GCUUUAUCCACGACAAUGATT against DSCAML1, the median seed-adjusted z-score is inactive: 0.237.
Regarding CCAGCAUCCCUAGCUCAGATT against SYVN1, the median seed-adjusted z-score was active: -1.41.
Regarding GGGUUUGCACUGAAACGAATT against CIR, the median seed-adjusted z-score was inactive: -0.197.
As to GGAAGAUUACUACCAUUUUTT against PCSK6, the median seed-adjusted z-score is inactive: 0.
For CGUCUUUAGCUGUCAAUAATT against RBM5 the value was inactive: -0.289.
AGGGAGUUUCUUGCAGUGATT against ADD2: the median seed-adjusted z-score was inactive: -0.176.
As to ACACUAUCCUGGAUAUUCUTT against GMPR, the median seed-adjusted z-score was inactive: 0.0757.
Regarding GGACUUCAGUUAUAGUUCATT against ZNF227, the median seed-adjusted z-score was inactive: 0.0194.
For GCACGAAUGAGGACGAUGATT against SPRY4, the median seed-adjusted z-score was active: -1.23.
As for CACCAACACGAGAAAGUCATT against GLT8D2, the median seed-adjusted z-score is inactive: -0.619.
For the sequence GGUUGGAACUCGUUCCUCATT against NLGN4X, the median seed-adjusted z-score is inactive: -0.1.
Take GCACCUUAAUUAAGAUCUUTT against ITGA9: the median seed-adjusted z-score was inactive: 0.
As for GCUGUUCAGUGUGCCUGCATT against RNF152, the median seed-adjusted z-score is inactive: -0.745.
As for CCGGUAUUAUUCUAAUGAATT against TMTC2, the median seed-adjusted z-score is inactive: 0.0277.
Then GCAACUAUUUUGUGGGCUUTT against PORCN, with inactive: 0.214; and CUUGUUACCUUGUUUGUCATT against GRM1, with inactive: 0.0376; and GUCUGGAACUUGCAGUGCATT against RDH8, with inactive: -0.657.
Then GAAUGAUAAUGGGUAUUAUTT against SEC24D, with inactive: 0.529; and AGACUAUUCCCUCCGUUUATT against GFI1, with inactive: -0.047; and AAGCAGGACUUCAACCGUATT against RAPGEF3, with inactive: -0.481.
Consider CCAACAGGAGAGUACGUGATT against STRADA, for which the median seed-adjusted z-score is inactive: 0.415.
For CGGAAUUUGUCAUUCAAGATT against RCN2 the value was inactive: -0.112; for GCAUGGAUCCGAAGUCGAATT against ABCA12, inactive: 0.0759.
Then CGAUGGUUGACAAUCCAGATT against NDUFS5, with active: -1.35; and GAUGAUGGAUGUCUAGAAATT against SCG5, with inactive: 0.573.
Then GCGACGACCUCGACUUUGATT against SLC32A1, with inactive: -0.251.
As to GGAUAUGGAUUGCGUAUAUTT against IL13RA2, the median seed-adjusted z-score was inactive: 0.113.
As to GGCCUACGUUUGAAAGACATT against ZNF792, the median seed-adjusted z-score was inactive: 0.
For GACCAUCUCUUAUGACCCATT against CA5B the value was inactive: 0.317; for CAACAAGAAUACACGGAAATT against TRIM25, inactive: 0.859; for GCACAACGUGAUUAAGACATT against PSMD3, inactive: 0.47.
Then ACUUAGAACUCGAGAUUCATT against OLIG1, with inactive: -0.387; and CAAGCAAGGUGCAAGAACATT against KEL, with inactive: 0; and GGAUAAUCUAUGAAGACUATT against RGS20, with inactive: -0.34.
For CAGCAGAGGAUAUCACUUATT against ZNF202 the value was inactive: 0.534.
Take GGCUUCUUCUCGUGCAUCATT against KCNK3: the median seed-adjusted z-score was inactive: 0.
With AACUGGACCUUAAAAAGAATT against POU4F3, the median seed-adjusted z-score is inactive: 0.
For the sequence GGUUUUCCGCAGCUACGUUTT against BAK1, the median seed-adjusted z-score is inactive: 0.0419.
In the case of GCAUAUCAAUCUCCAGGGATT against NLRC3, the median seed-adjusted z-score is inactive: 0.323.
As for GGAAUAAUCUGCCUAAAUATT against APOBEC3G, the median seed-adjusted z-score is inactive: 0.00539.
On to GUUACUCACAUUUUCUUUATT against AKR7A3, for which the median seed-adjusted z-score was inactive: 0.455.
As to GAGCGAUCGUAGAAACACATT against HRK, the median seed-adjusted z-score is inactive: 0.217.
As for CCCUGUUCAUUGCCCUGUATT against FGR, the median seed-adjusted z-score is inactive: 0.596.
For the sequence CCUUGGAGCCCAUAACAUATT against CMA1, the median seed-adjusted z-score was inactive: -0.0475.
With CUACCUUGCCUGCUCCUAUTT against KDELR2, the median seed-adjusted z-score was inactive: 0.
Consider GCCACGUCCAUAGUUCUGATT against FUT7, for which the median seed-adjusted z-score is inactive: -0.146.
As for GAGUAUCCAUCGGUAUCUATT against ZBTB11, the median seed-adjusted z-score was inactive: -0.105.
On to GGAGCUCUGUUGUGGAGAATT against FCGRT, for which the median seed-adjusted z-score was inactive: -0.00396.
Take GGAUUUCAUCGAGAACCGATT against MKRN2: the median seed-adjusted z-score is inactive: 0.
Turning to GGAAUUACAACAUAUCGUUTT against TNFSF11, the median seed-adjusted z-score was inactive: 0.0212.
Regarding GACGCAUUGUGGAGAGGGATT against COASY, the median seed-adjusted z-score was inactive: 0.
With GAUGUGAAAUGGAGAAGUATT against KLF5, the median seed-adjusted z-score is inactive: -0.338.
Take GGUAGUUAUUACUAGUAAATT against GBE1: the median seed-adjusted z-score is inactive: 0.
For GAAUGAGGCUAUACAAAAUTT against GLYAT the value was inactive: 0.68.
For the sequence GGAUCAGCUUCGUACGGUUTT against LAMA4, the median seed-adjusted z-score was inactive: 0.691.
Take GGUCCCAUCUUGUUGGAUATT against ZNF292: the median seed-adjusted z-score was inactive: -0.481.
CCAUGAUGAUUAUCUCGUUTT against RNF149: the median seed-adjusted z-score was inactive: -0.17.
On to GGACCAUCAGAGUCGAAGATT against FLNB, for which the median seed-adjusted z-score was inactive: 0.243.
GAGCUGAGGUGGUAAAGCATT against YARS: the median seed-adjusted z-score was inactive: 0.0197.
As for GUCUUGUAGAAAUCUCAGATT against RFC3, the median seed-adjusted z-score is inactive: 0.733.
As to CAAUCAAGCUGUCCACGAATT against EPHA5, the median seed-adjusted z-score was inactive: -0.00876.
For the sequence GGAUGCUUCUGCUGAACAATT against SSPO, the median seed-adjusted z-score was inactive: 0.397.

For the origin of these results see PubChem BioAssay AID1347426 (Functional Genomics Laboratory (NCATS/FGL), 2020).
